# Laboratory results: PubChem BioAssay AID493014 (National Center for Advancing Translational Sciences (NCATS), 2011)
# The list shows a part of the results. The main result of the screen is listed elsewhere. These columns were measured beside it and carry no call. The list favours compounds with an active or inconclusive main result. Potencies come from curve fits of mixed quality, noted in brackets.
# Assay: qHTS Assay to Find Inhibitors of Chronic Active B-Cell Receptor Signaling
# Settings: ABC-DLBCL IkBa-CBG/CBR reporter, luminescence ratio (green luciferase fused to IkBa over red control in TMD8 lymphoma cells), 4 h
# Outline: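 Compounds up to 46 uM were incubated four hours with TMD8 cells whose green CBG68 luciferase is fused to IkappaBalpha; red CBR luminescence normalised the signal, and concentration-effect curves were fitted to fusion, red and ratio data.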
# [1] = measured here: CBR red luminescence, cell number
# [2] = measured here: IkBa-CBG green luminescence
smiles,measurement,setting,value
Fc1ccc(C2=NNC(=NCc3ccccc3)SC2)cc1F,AC50,[1],"12.6 µM [falling, partial curve, poor fit]"
COc1ccc(CCNC(=O)c2ccc(-c3ccc([N+](=O)[O-])cc3Cl)o2)cc1OC,AC50,[1],"20.6 µM [falling, single point]"
O=C(/C=C/c1ccccc1[N+](=O)[O-])NCCN1C(=O)S/C(=C\c2ccc(F)cc2)C1=O,AC50,[1],"31.6 µM [rising, partial curve, poor fit]"
CCC(=O)c1cccc2c1N=CC1=C(CC(C)(C)CC1=O)N2,AC50,[1],"6.51 µM [rising, single point]"
Cc1nnc(SCC(N)=O)n1CCc1ccccc1,AC50,[1],"0.00411 µM [rising, full curve, poor fit]"
Cc1ccccc1Nc1ccc2nonc2c1[N+](=O)[O-],AC50,[1],"15.8 µM [rising, partial curve, poor fit]"
Cc1cc(C(=O)Nc2cc(C(C)(C)C)on2)c(C)o1,AC50,[1],"0.794 µM [falling, full curve, poor fit]"
CCOc1ccc(N=C/C=C/c2ccccc2)c(O)c1,AC50,[1],"12.6 µM [rising, single point]"
COC(=O)CCC(NC(=O)c1cc(C)oc1C)C(=O)OC (stereo not drawn),AC50,[1],"29.1 µM [rising, single point]"
CCOC(=O)C1=C(c2ccccc2)N=C2SCC(=O)N2C1c1cccc(OC)c1 (stereo not drawn),AC50,[1],"0.92 µM [falling, full curve, poor fit]"
Oc1c(Cl)cc(Cl)cc1/C=N/Nc1ncc(Br)cn1,AC50,[1],"0.891 µM [rising, full curve, poor fit]"
C[N+](C)(C)c1ccc(/C=N/Nc2nc(Cl)c(C#N)c(Cl)c2Cl)cc1,AC50,[1],"11.6 µM [falling, partial curve]"
CCOc1cc(/C=C/c2cc(C(F)(F)F)[nH]c(=O)n2)ccc1O,AC50,[1],"35.5 µM [falling, single point]"
Fc1ccc(-c2ccc(CNCc3ccccn3)o2)cc1Cl,AC50,[1],"6.31 µM [rising, full curve, poor fit]"
Cn1nnnc1SCC(=O)Nc1ccccn1,AC50,[1],"6.51 µM [falling, single point]"
same,AC50,[2],"6.51 µM [rising, partial curve, poor fit]"
CCOC(=O)c1snc(-c2ccc(F)cc2)c1N,AC50,[1],"0.562 µM [rising, full curve]"
O=C(CNC(=O)c1cccc(Cl)c1)Nc1ccc(F)c(F)c1F,AC50,[1],"8.91 µM [rising, single point]"
Clc1ccc(OCc2nc(-c3ccccn3)n[nH]2)cc1,AC50,[1],"9.2 µM [falling, partial curve, poor fit]"
COc1cccc(C(=O)Nc2ccc(NC(=O)C3C4C=CC(C4)C3C(=O)O)cc2)c1 (stereo not drawn),AC50,[1],"10 µM [falling, partial curve, poor fit]"
CCOC(=O)c1sc(-c2ccccc2)cc1N,AC50,[1],"2.06 µM [rising, partial curve]"
COc1ccc(CCN(C)C(=O)c2cc(=O)c3ccccc3o2)cc1OC,AC50,[1],"12.6 µM [rising, partial curve, poor fit]"
CCc1noc(C)c1C(=O)N(CC)CC(=O)Nc1cc(Cl)ccc1C,AC50,[1],"13 µM [rising, partial curve, poor fit]"
CCn1c(O)c(N=Nc2ccc(Cl)c(C(=O)O)c2)c2ccccc21,AC50,[1],"10 µM [falling, partial curve, poor fit]"
CCOC(=O)c1ccc(NC(=O)CS(=O)(=O)c2cn(CC)c3ccccc23)cc1,AC50,[1],"11.2 µM [falling, partial curve, poor fit]"
O=C(CNc1ccccc1)Nc1cccc2ccccc12,AC50,[1],"0.562 µM [falling, full curve]"
CCc1ccc(-c2cn3nc(C)c(C)nc3n2)cc1,AC50,[1],"10 µM [falling, partial curve]"
COc1cccc(/C=N/NC(=O)c2ccoc2C)c1,AC50,[1],"8.91 µM [falling, partial curve]"
O=C(O)C1CCCC[C@H]1C(=O)Nc1ncc([N+](=O)[O-])s1 (stereo partly drawn),AC50,[1],"18.4 µM [rising, single point]"
CC(C)(Oc1ccc(Br)cc1Cl)C(=O)Nc1ccon1,AC50,[1],"31.6 µM [rising, single point]"
O=C(CSc1nnnn1Cc1ccccc1)Nc1ccc2c(c1)OCO2,AC50,[1],"29.1 µM [rising, single point]"
O=C(Nc1ccc(F)c(Cl)c1)N1CCCC1,AC50,[1],"35.5 µM [falling, single point]"
Cc1ccc(C(=O)O)cc1NC(=S)NC(=O)C(c1ccccc1)c1ccccc1,AC50,[1],"2.51 µM [rising, full curve]"
same,AC50,[2],"14.1 µM [falling, partial curve, poor fit]"
Cc1n[nH]c(C)c1NC(=O)c1cc([N+](=O)[O-])ccc1Cl,AC50,[1],"17.8 µM [rising, single point]"
Cc1ccc(C(=O)N2CCN=C2SCc2ccc([N+](=O)[O-])cc2)cc1,AC50,[1],"25.9 µM [falling, partial curve, poor fit]"
CCOC(=O)CN(C(=O)CNC(=O)c1cccs1)C(C(=O)NC1CCCC1)c1cccnc1 (stereo not drawn),AC50,[1],"23.1 µM [falling, single point]"
O=c1[nH]c(C2CCN(S(=O)(=O)c3ccc4c(c3)OCCO4)CC2)nc2c1nnn2Cc1ccc(F)cc1,AC50,[1],"1.78 µM [falling, full curve]"
COc1cc(-c2cc(C(=O)Nc3ccccc3N3CCOCC3)c3ccccc3n2)cc(OC)c1OC,AC50,[1],"2.82 µM [rising, single point]"
Cn1c(CCN2CCCCC2)nc2cc(NC(=O)Nc3ccccc3)ccc21,AC50,[1],"0.251 µM [falling, full curve, poor fit]"
COc1ccc(C2CC(=O)c3c([nH]c(C(=O)OC(C)C)c3C)C2)cc1OC (stereo not drawn),AC50,[1],"23.1 µM [rising, partial curve, poor fit]"
COc1ccc(-c2[nH]ncc2CNCc2cc(C)n(C)n2)c(F)c1,AC50,[1],"5.62 µM [rising, single point]"
C/C(=N\Nc1nc2ccccc2[nH]1)c1cccs1,AC50,[1],"9.2 µM [falling, partial curve]"

# Two entries from above, bar-delimited.
smiles | measurement | setting | value
COC(=O)CCC(NC(=O)c1cc(C)oc1C)C(=O)OC (stereo not drawn) | AC50 | [1] | 29.1 µM [rising, single point]
COc1cccc(/C=N/NC(=O)c2ccoc2C)c1 | AC50 | [1] | 8.91 µM [falling, partial curve]
